Reference: patent US20060040945A1, “Annellated pyrrole compounds as proton pump inhibitors for treating ulcer” (MERCKLE GMBH, priority 2002, published 2006)
At least one structure is not confirmed: it was looked up by name or label, or the drawing left a doubt.

Protein sequences, listed by entry. Tags and fused reporters are not part of them. Residues count along the entry.
UniProt P19156, 2-1034 limits assumed: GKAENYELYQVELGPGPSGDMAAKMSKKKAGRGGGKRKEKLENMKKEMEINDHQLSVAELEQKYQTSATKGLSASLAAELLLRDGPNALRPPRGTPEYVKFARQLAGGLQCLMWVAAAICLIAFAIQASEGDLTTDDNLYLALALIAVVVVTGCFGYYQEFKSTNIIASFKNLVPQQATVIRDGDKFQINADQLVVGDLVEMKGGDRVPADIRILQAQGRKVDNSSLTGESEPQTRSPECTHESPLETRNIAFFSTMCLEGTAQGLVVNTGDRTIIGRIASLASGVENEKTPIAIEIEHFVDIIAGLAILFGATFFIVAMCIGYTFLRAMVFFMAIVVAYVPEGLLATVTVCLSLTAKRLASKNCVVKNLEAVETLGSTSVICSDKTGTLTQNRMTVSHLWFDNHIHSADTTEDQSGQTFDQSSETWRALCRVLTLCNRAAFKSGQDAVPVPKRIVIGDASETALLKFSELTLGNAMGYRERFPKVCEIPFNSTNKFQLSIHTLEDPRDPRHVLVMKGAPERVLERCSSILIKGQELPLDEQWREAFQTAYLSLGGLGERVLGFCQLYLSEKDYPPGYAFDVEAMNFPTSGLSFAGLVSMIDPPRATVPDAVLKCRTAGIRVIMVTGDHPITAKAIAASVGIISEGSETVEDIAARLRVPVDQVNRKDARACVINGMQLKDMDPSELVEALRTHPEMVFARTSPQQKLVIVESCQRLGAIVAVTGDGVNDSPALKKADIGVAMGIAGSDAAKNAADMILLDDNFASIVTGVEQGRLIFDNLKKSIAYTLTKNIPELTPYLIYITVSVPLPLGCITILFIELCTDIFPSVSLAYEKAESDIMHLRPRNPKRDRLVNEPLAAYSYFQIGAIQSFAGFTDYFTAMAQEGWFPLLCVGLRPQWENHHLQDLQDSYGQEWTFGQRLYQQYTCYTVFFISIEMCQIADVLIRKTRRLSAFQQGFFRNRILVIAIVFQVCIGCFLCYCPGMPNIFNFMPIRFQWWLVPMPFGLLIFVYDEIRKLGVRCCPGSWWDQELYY

Target: T1, gastric H,K-ATPase (Sus scrofa, UniProt P19156)
T1 construct: Reaction mixtures for assay of K^+-stimulated ATPase activity in pig gastric microsomal membranes contained 5 μg membrane protein; from tissue; host or cells: pig gastric fundic mucosa, G1 microsomal fraction
Assay: K+-stimulated, SCH28080-sensitive H,K-ATPase activity of pig gastric microsomes (32Pi release from ATP)
Type: biochemical
Settings: omeprazole acidified to pH 6.1 and incubated with the enzyme for 30 min at the same pH; read-out: estimated IC50, H,K-ATPase activity
Description: Strategy. Microsomal gastric H,K-ATPase was prepared from pig gastric mucosal homogenates by differential centrifugation. Briefly, pig stomachs obtained at a slaughter-house within 1 hour post mortem were washed with ice-cold 0,25 M sucrose and the fundus was dissected from the cardiac and antral regions. All subsequent prodedures were at 4° C. The mucosa was flooded with saturated NaCl, and the surface mucus and superficial cells wiped off with paper towels. […] ATP hydrolytic activity of microsomes was quantitated in terms of inorganic phosphate release from substrate ATP and measured in graded concentrations (ranging from 10^−9M to 10^−4M) of ML 3000, and a wide range of other compounds. […] Inorganic phosphate (γ-^32Pi) content of the supernatant was measured by scintillation counting. […] Graphs with standard error bars present inter-assay data variance in three independent assays in each of which ATPase activities in three separate but identical reaction conditions were measured. […]
Given that PPIs are irreversible inhibitors of H,K-ATPase activity, covalently binding to the catalytic α-subunit, it was determined whether ML 3000 inhibition of H,K-ATPase was reversible or irreversible. […]

COc1ccc2[nH]c([S+]([O-])Cc3ncc(C)c(OC)c3C)nc2c1 (stereo not shown) [omeprazole]
IC50: 1000 nM
